Data on one compound can be found in ChEMBL document CHEMBL4011620, “Design and Discovery of N-(2-Methyl-5'-morpholino-6'-((tetrahydro-2H-pyran-4-yl)oxy)-[3,3'-bipyridin]-5-yl)-3-(trifluoromethyl)benzamide (RAF709): A Potent, Selective, and Efficacious RAF Inhibitor Targeting RAS Mutant Cancers” (J Med Chem, 2017).

The series in a line: Solubility of compound at pH 6.8 by shake-flask assay. The conditions noted are these: buffer.

As a reminder, the thermodynamic solubility is solubility found after equilibrating the solid with the medium. For `Cc1ccc(C(=O)Nc2cccc(C(F)(F)F)c2)cc1-c1cc(N2CCOCC2)ncn1`, the thermodynamic solubility is less than 2 µM.
